A short description of this assay: qHTS Assay for Lipid Storage Modulators in Drosophila S3 Cells.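 For cell number change: cells counted by Cell Tracker Red CMTPX staining in the red channel.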 The note with it: BODIPY lipid droplet fluorescence, 18-24 h; for cell number change: measured here: cell count max response, cells fed with added oleic acid. An outline of the steps: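 Drosophila S3 cells loaded with oleic acid (400 uM, as added) and compounds at several concentrations; lipid droplets imaged by 488-nm laser-scanning cytometry, 500–530 nm intensity and object ratio to cell channel. Percent activity normalized to 20 uM Triacsin C.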
In general terms: Quantitative high-throughput screening tests each substance at several concentrations.

The mark [1] stands for this setting: measured here: cell number channel AC50, cells fed with added oleic acid.
[2] abbreviates: measured here: lipid fluorescence (Fed channel) AC50, cells fed with added oleic acid.

In general, AC50 refers to the concentration at which the activity in the assay is half-maximal. A low value points to greater potency.

The list shows a part of the results. Shown are side measurements of this screen, not its main read-out; they come without a call. The list favours compounds with an active or inconclusive main result. The note in brackets gives the kind of curve behind each potency; many fits are weak.

In the case of `O=C(NCCCn1ccnc1)c1cc(S(=O)(=O)N2CCOCC2)c(Cl)cc1Cl`, the cell number change came to 6.25%.

With `Cn1nc(OCC(=O)O)cc1C(F)(F)F`, the cell number change turned out to be 13.5%. Further, the concentration at half-maximal activity (AC50) under setting [1] is 6.51 µM [falling, single point]. Also, the concentration at half-maximal activity (AC50) under setting [2] is 6.51 µM [falling, single point].

For `OCC(CO)(CO)n1cnnn1`, the cell number change is 5.09%.

With `O=C(NCC1CCCO1)C1CC(c2ccccc2Cl)=NO1` (centres undefined), the cell number change came out at 9.37%.

Regarding `CCOC(=O)C1CCN(C(=O)c2ccccc2NS(=O)(=O)c2ccc(F)c(F)c2)CC1`, the cell number change is 14.7%. Moreover, under setting [2], the AC50 is 2.06 µM [rising, single point].

Turning to `Cc1ccccc1NC(=O)Cc1nc(COC(=O)CSc2ccccc2)cs1`, the cell number change worked out at 20.4%. The half-maximal activity concentration (AC50) under setting [1] was 0.103 µM [rising, full curve, poor fit]. Moreover, under setting [2], the AC50 is 29.1 µM [rising, single point].

For `N#CC(c1ccc(Cl)nn1)c1c(F)cccc1Cl` (centres undefined), the cell number change is -11.1%.

As to `CCCC1(CCC)NC(=O)NC1=O`, the cell number change was -47.6%. The AC50 under setting [1] was 29.1 µM [falling, single point]. For the same compound, the AC50 under setting [2] was 25.9 µM [falling, single point].

Regarding `Cc1ccc(-c2nc(CSCC(=O)N3CCN(C(=O)c4ccco4)CC3)c(C)o2)cc1`, the cell number change was -17.6%. For the same compound, under setting [2], the AC50 is 0.326 µM [falling, full curve].

Regarding `CC(C(=O)Nc1sc2c(c1C#N)CCCCC2)N1C(=O)c2ccccc2C1=O` (centres undefined), the cell number change came to 1.57%. Under setting [2], the AC50 was 0.517 µM [falling, full curve, poor fit].

On to `O=C(NCC(c1cccnc1)N1CCN(c2ccccc2F)CC1)OCc1ccccc1` (centres undefined), for which the cell number change was -6.24%. Further, the AC50 under setting [2] was 0.517 µM [rising, full curve, poor fit].

`Cc1cc(=O)oc2c(C)c(OCC(=O)N3CCC(C(=O)O)CC3)ccc12`: the cell number change worked out at 8.55%. In addition, the AC50 under setting [2] is 5.8 µM [rising, full curve, poor fit].

With `COc1cc(C2c3c(-c4ccccc4O)n[nH]c3C(=O)N2Cc2ccco2)cc(OC)c1OC` (centres undefined), the cell number change is -7.61%. The AC50 under setting [1] is 0.651 µM [falling, single point].

Take `CN(c1ccccc1)S(=O)(=O)c1nnc(NC(=O)c2ccco2)s1`: the cell number change is -24.8%. The concentration at half-maximal activity (AC50) under setting [1] is 6.51 µM [falling, single point].

For `NS(=O)(=O)c1ccc(NC(=O)COC(=O)CNC(=O)C23CC4CC(CC(C4)C2)C3)cc1`, the cell number change is -24.1%.

With `O=C(Nc1cccc2ccccc12)N1CCN(Cc2ccc3c(c2)OCO3)CC1`, under setting [2], the AC50 was 0.92 µM [rising, partial curve].

As to `O=C(CCc1ccccc1)NNC(=O)COc1ccc(Br)cc1`, the cell number change amounted to 33%. In addition, the AC50 under setting [1] was 36.6 µM [rising, partial curve, poor fit].

Take `Clc1ccccc1CSc1nnc(-c2cccnc2)n1Cc1ccco1`: the cell number change was 1.42%. Besides, the concentration at half-maximal activity (AC50) under setting [1] was 0.517 µM [falling, full curve, poor fit]. Also, the half-maximal activity concentration (AC50) under setting [2] was 5.8 µM [rising, full curve].

In the case of `Fc1cc(Cl)ccc1NC1=NCCCCC1`, the cell number change amounted to 69.4%. The AC50 under setting [1] was 29.1 µM [rising, single point].

For `COc1cccc(-c2nnc(SCC(=O)OC(C)C)n2Cc2ccco2)c1`, the cell number change is -17.3%. For the same compound, the AC50 under setting [2] is 16.4 µM [rising, single point].

Consider `CCOC(=O)C1CCN(C(=O)c2cc(C(C)(C)C)nn2Cc2ccccc2)CC1`, for which the cell number change is -19.1%. Moreover, under setting [2], the concentration at half-maximal activity (AC50) was 20.6 µM [falling, single point].

With `N#Cc1cccc(C#N)c1Oc1ccc(N)cc1`, the AC50 was 0.92 µM [rising, partial curve, poor fit] under setting [1] and 2.59 µM [rising, partial curve] under setting [2].

With `COc1ccc(NC(=O)C2CCCN(S(=O)(=O)c3cccs3)C2)cc1OC` (centres undefined), the cell number change came out at 103%. For the same compound, the AC50 under setting [1] is 2.59 µM [rising, full curve]. For the same compound, the AC50 under setting [2] was 1.46 µM [rising, partial curve].

As to `CC12CCC(C(=O)O)(c3nc(C#N)c(C#N)nc31)C2(C)C` (centres undefined), the cell number change is -16.1%. Moreover, the AC50 under setting [2] was 29.1 µM [rising, single point].

`COc1ccc(N2C(=O)CCC(C(=O)NCc3cccnc3)C2c2ccc(OC)c(OC)c2)cc1` (centres undefined): the cell number change was 38.8%. The half-maximal activity concentration (AC50) under setting [1] was 16.4 µM [rising, single point].

On to `CCOC(=O)C1=C(C)NC(C)=C(C(=O)OCC)C1c1cccs1`, for which the cell number change was -15.8%. For the same compound, under setting [2], the AC50 is 7.31 µM [falling, partial curve].

Regarding `COc1ccc(NC(=O)c2ccco2)c(NC(=O)Cc2cccs2)c1`, the cell number change worked out at 74.9%. In addition, the half-maximal activity concentration (AC50) under setting [2] is 0.58 µM [rising, single point].

With `COc1ccccc1C(=O)NCCC(=O)Nc1ncccc1C`, the cell number change worked out at 4.32%.

Regarding `CCCC(C(=O)NCc1ccco1)N(C(=O)CNS(=O)(=O)c1ccccc1)C1CCCC1` (centres undefined), the cell number change worked out at 52.1%. Under setting [1], the half-maximal activity concentration (AC50) is 9.2 µM [rising, partial curve, poor fit].

For `NS(=O)(=O)c1ccc(NC(=O)CN2CCCCC2)cc1`, the cell number change is -48.5%. Besides, the AC50 under setting [1] is 5.8 µM [falling, full curve]. The AC50 under setting [2] was 4.11 µM [falling, single point].

For the compound `CC1CCC(NC(=O)CCNS(=O)(=O)c2ccccc2)CC1` (centres undefined), the cell number change was 31.4%.

Consider `CCN(CC)S(=O)(=O)c1ccc(C(=O)NCc2ccc3c(c2)cc(C)n3C)cc1`, for which the cell number change was 32.6%. The half-maximal activity concentration (AC50) under setting [1] is 11.6 µM [rising, partial curve].

For the compound `CCc1ccccc1NC(=O)C1=CC(c2cccs2)=NS(=O)(=O)N1C`, the cell number change is -39.2%. Besides, under setting [1], the concentration at half-maximal activity (AC50) was 7.31 µM [falling, partial curve]. Also, the AC50 under setting [2] is 0.82 µM [falling, full curve].

Turning to `Cc1cccc(Oc2ccc3c(c2)cc(C(=O)O)n3C)c1`, the cell number change is 3.15%. Also, under setting [2], the AC50 is 11.6 µM [rising, partial curve].

Take `COc1ccc(-c2cn(-c3ccc(Br)cc3)c3[n+]2CCS3)cc1`: the cell number change is 7.3%. Further, the half-maximal activity concentration (AC50) under setting [2] is 5.8 µM [rising, full curve].

With `CN(C)c1ccc(/C=C(\NC(=O)c2ccccc2)C(=O)NCCCN2CCOCC2)cc1`, the cell number change was 15%. The AC50 under setting [2] is 29.1 µM [rising, single point].

In the case of `Cc1nc(CN2CCC(c3ccccc3)CC2)cc(=O)[nH]1`, the AC50 under setting [1] was 3.26 µM [falling, single point] and the AC50 under setting [2] was 4.11 µM [falling, single point].

For `Oc1ccccc1/C=N/NC(=S)NC1CC2C=CC1C2` (centres undefined), the cell number change is -51%. Moreover, the AC50 under setting [1] is 25.9 µM [falling, single point]. Also, the concentration at half-maximal activity (AC50) under setting [2] was 29.1 µM [falling, single point].

For the compound `CC(C)/C(=N\NS(=O)(=O)c1ccc(Br)cc1)c1cccs1`, the cell number change was 14.7%. In addition, the half-maximal activity concentration (AC50) under setting [1] was 0.0366 µM [falling, single point]. Also, the AC50 under setting [2] is 0.0517 µM [falling, full curve, poor fit].

In the case of `Cc1ccc(NC(=O)c2cc(-c3cccs3)nc3ccccc23)nc1`, the cell number change is 9.51%. Moreover, the AC50 under setting [2] is 1.64 µM [rising, partial curve, poor fit].

As to `CC1(c2ccc(OC(F)F)cc2)NC(=O)N(CC(=O)Nc2ccc(Cl)cc2F)C1=O` (centres undefined), the cell number change turned out to be 19.4%. In addition, the AC50 under setting [2] was 0.58 µM [falling, single point].

For `O=C(Cc1ccc(S(=O)(=O)N2CCOCC2)s1)NCCC(c1ccccc1)c1ccccc1`, the cell number change was -21.2%. Moreover, the AC50 under setting [1] is 2.91 µM [rising, single point]. Moreover, the AC50 under setting [2] was 6.51 µM [rising, single point].

Regarding `O=C(NCc1n[nH]c(=S)n1-c1cccc(C(F)(F)F)c1)c1ccc(S(=O)(=O)N2CCCCC2)cc1`, the cell number change amounted to 23%. In addition, under setting [2], the AC50 was 4.11 µM [falling, full curve].

As for `O=S(=O)(c1cccs1)N1CCC2(CC1)OCCO2`, the cell number change was 20.9%. Under setting [2], the AC50 is 13 µM [rising, partial curve].

On to `COc1ccc(CC(=O)NC(C)c2ccc(S(N)(=O)=O)cc2)cc1S(=O)(=O)N1CCOCC1` (centres undefined), for which the cell number change was 15.7%. Also, the AC50 under setting [2] was 0.116 µM [rising, full curve, poor fit].

`Cc1ccc2nc(NCc3ccccc3)[nH]c2c1`: the cell number change is -4.09%. Also, under setting [2], the AC50 was 29.1 µM [rising, single point].

As to `O=C(O)CCC(=O)NNC(=O)c1cccc(Br)c1`, the cell number change is -46.8%. In addition, under setting [1], the AC50 was 16.4 µM [falling, single point].

As to `O=C(CCCC(=O)Nc1ccccc1Br)N/N=C/c1c(F)cccc1Cl`, the cell number change worked out at 35.5%. In addition, the half-maximal activity concentration (AC50) under setting [1] was 2.06 µM [rising, partial curve, poor fit]. Moreover, the AC50 under setting [2] is 6.51 µM [rising, single point].

On to `COc1ccc(-c2nonc2NC(=O)c2oc3ccccc3c2C)cc1OC`, for which the cell number change came to 25.4%.

With `COc1ccc2c(c1)CC[C@@H]1[C@@H]2CC[C@]2(C)[C@@H](C(C)=O)C[C@@H]12`, the cell number change is -11.8%. Besides, under setting [2], the half-maximal activity concentration (AC50) was 6.51 µM [falling, single point].

`COc1ccccc1NCC(=O)NNC(C)C(=O)Nc1cccc(Cl)c1` (centres undefined): the half-maximal activity concentration (AC50) runs as follows: under setting [1], 0.116 µM [rising, full curve]; under setting [2], 0.146 µM [rising, partial curve, poor fit].

For the compound `O=C(OCc1ccccn1)c1ccc(COc2ccc3ccccc3c2)o1`, the cell number change was 7.1%. Besides, the half-maximal activity concentration (AC50) under setting [2] was 9.2 µM [rising, partial curve, poor fit].

In the case of `COc1ccc(-c2csc3ncnc(N4CCN(c5ccccc5Cl)CC4)c23)cc1`, the cell number change stood at 75.1%. In addition, under setting [1], the AC50 is 25.9 µM [rising, partial curve]. The AC50 under setting [2] is 25.9 µM [rising, partial curve].

Regarding `O=[N+]([O-])c1ccc(N2CCC(O)CC2)nc1`, the cell number change is -52.6%. In addition, the AC50 under setting [1] is 29.1 µM [falling, single point]. For the same compound, the AC50 under setting [2] is 29.1 µM [falling, single point].

Take `COc1ccc(NC(=O)CCCNC(=O)Cn2cnc3sc(C)c(C)c3c2=O)c(OC)c1`: the cell number change is 22.2%.

Take `O=C(NC1CCCCCC1)c1c2c(nc3ccccc13)CCN(Cc1ccccc1)C2`: the concentration at half-maximal activity (AC50) under setting [2] is 18.4 µM [rising, single point].

Turning to `Cc1nc(NC2CCCC2)sc1C(=O)N(C)C`, the cell number change came out at 9.69%. Moreover, the half-maximal activity concentration (AC50) under setting [2] was 1.46 µM [falling, partial curve].

For `CN(C)S(=O)(=O)c1ccc(C(=O)OCC(=O)Nc2ccc3c(c2)OCO3)cc1`, the cell number change was found to be 16.5%.

For `Cn1c(=O)n(C)c2cc(NS(=O)(=O)c3ccc(C(C)(C)C)cc3)ccc21`, the cell number change is -40.3%. Further, under setting [1], the AC50 was 13 µM [falling, partial curve, poor fit].

(Values after PubChem BioAssay AID2685 (National Center for Advancing Translational Sciences (NCATS), 2010).)
